In patent publication US20150274828A1 (SHANGHAI SERUM BIOTECHNOLOGY, published 2015):
Results are given in words; binding and its absence hold for the method and conditions named.

How the values were obtained:
TNF = experiment: phage ELISA, antigen coated, anti-M13-HRP
VEGF = experiment: phage ELISA, antigen coated, anti-M13-HRP

B1: Ame55 phage single chain antibody (scFv)
scFv: SYELTQPPSVSVAPGQTARITCSGDALGDKYASWYQQKPGQAPVLVIYEDSKRPSGIPERFSGSNSGNTATLTISGTQAEDEADYYCSVWDGDWGMPVFGGGTKLTVLGSGGSTITSYNVYYTKLSSSGSEVQLVQSGAEVKKPGESLKISCKGSGYSFTSYWIGWVRQMPGKGLEWMGIIYPGDSDTRYSPSFQGQVTISADKSISTAYLQWSSLKASDTAMYYCARGIIYPSNVAVWGQGTLVTVSS
notes: the phage coat fusion is not described; also called Ame55 phage antibody; Ame55 single chain antibody
TNF
  binding: no binding
VEGF
  binding: no binding
